Laboratory results taken from article PMC3237483.
No constants are given. Whether binding was seen depends on the method and setting. Binding seen in cells or lysates may run through a third protein. Some results given as binding are weak or reduced against the parent protein; the word gives no strength. Sequences can lack the tags named with a protein.

Amino acid sequences for entries named in this document (tags omitted).
UniProt Q13153: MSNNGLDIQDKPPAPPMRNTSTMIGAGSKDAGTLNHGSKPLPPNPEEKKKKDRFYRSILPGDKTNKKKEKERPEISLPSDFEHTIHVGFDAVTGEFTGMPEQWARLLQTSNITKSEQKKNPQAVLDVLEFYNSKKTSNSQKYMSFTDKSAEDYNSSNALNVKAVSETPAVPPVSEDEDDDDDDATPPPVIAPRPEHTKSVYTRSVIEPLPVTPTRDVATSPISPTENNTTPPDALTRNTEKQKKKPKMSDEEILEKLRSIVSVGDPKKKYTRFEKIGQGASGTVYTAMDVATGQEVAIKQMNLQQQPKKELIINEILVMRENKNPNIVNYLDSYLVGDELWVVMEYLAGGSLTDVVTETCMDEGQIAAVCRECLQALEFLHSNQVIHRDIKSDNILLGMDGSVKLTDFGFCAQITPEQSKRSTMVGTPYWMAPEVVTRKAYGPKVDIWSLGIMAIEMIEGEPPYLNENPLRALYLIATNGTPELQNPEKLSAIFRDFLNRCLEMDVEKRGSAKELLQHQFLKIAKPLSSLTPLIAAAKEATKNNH

Target: T1, 3×Flag-Nephrin (human) (human) (UniProt O60500)
T1 sequence: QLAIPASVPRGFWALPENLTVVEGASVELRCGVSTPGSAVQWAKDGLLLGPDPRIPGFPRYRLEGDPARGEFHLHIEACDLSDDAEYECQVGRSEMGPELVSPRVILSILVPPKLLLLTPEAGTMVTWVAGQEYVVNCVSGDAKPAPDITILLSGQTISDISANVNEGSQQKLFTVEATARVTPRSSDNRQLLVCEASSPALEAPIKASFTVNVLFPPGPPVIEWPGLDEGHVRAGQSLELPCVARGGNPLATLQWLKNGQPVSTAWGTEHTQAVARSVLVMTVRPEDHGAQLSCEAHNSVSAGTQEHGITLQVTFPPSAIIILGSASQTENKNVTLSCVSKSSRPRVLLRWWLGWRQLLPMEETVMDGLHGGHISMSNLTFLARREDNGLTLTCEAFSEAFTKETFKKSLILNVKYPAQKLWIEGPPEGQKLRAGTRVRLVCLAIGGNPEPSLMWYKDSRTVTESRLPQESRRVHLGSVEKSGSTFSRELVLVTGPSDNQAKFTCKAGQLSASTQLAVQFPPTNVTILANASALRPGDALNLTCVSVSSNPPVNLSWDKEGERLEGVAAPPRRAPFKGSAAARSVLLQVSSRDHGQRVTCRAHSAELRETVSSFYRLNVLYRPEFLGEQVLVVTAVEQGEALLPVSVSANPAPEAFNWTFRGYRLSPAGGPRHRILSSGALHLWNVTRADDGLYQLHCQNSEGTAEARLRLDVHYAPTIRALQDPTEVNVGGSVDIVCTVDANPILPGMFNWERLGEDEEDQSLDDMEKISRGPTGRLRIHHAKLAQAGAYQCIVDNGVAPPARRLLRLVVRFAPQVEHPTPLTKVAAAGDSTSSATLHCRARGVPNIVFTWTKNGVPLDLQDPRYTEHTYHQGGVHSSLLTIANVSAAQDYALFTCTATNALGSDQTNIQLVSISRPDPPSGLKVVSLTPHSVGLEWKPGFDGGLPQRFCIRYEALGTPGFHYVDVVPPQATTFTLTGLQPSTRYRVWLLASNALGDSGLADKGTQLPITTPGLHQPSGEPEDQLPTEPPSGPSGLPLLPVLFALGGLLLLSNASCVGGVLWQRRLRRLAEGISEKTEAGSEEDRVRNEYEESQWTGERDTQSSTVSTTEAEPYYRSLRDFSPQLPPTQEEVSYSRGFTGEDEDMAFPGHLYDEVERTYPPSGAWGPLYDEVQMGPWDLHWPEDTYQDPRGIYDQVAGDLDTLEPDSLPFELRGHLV
Assay: co-IP; human podocytes expressing 3×Flag-hNephrin and wild type Pak1, treated with 50A9 anti-Nephrin mab followed by anti-mouse IgG (mouse IgG as control), lysed in RIPA buffer, immunoprecipitated with Flag antibody or pre-immune sera

Pak1, wild type (from UniProt Q13153 1-545) (enzyme)
binding: binds
